Results on 36 molecules are retold here after PubChem BioAssay AID2685 (National Center for Advancing Translational Sciences (NCATS), 2010).

The list shows a part of the results. These are further read-outs of the screen, such as a control signal, another cell line or another target. No call is given for them. The list favours compounds with an active or inconclusive main result. The note in brackets gives the kind of curve behind each potency; many fits are weak.

A short description of this assay: qHTS Assay for Lipid Storage Modulators in Drosophila S3 Cells.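 On cell number change: cells counted by Cell Tracker Red CMTPX staining in the red channel.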 As to conditions: BODIPY lipid droplet fluorescence, 18-24 h; for cell number change: measured here: cell count max response, cells fed with added oleic acid. The procedure, abridged: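 Laser-scanning cytometry quantifies lipid droplet accumulation (500–530 nm total intensity; droplet/cell object ratio) in oleic acid-fed (400 uM added) Drosophila S3 cells treated with a concentration series. 20 uM Triacsin C defined 100% inhibition.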
In general terms: Quantitative high-throughput screening tests each substance at several concentrations.

Setting [1] is: measured here: cell number channel AC50, cells fed with added oleic acid.
The mark [2] stands for this setting: measured here: lipid fluorescence (Fed channel) AC50, cells fed with added oleic acid.

Take `CN(C)CCNC(=O)CNC(=S)N(Cc1ccccc1)Cc1ccccc1F`: the cell number change was -42.9%. In addition, the AC50 (usually the midpoint of the concentration-response curve, whichever way the signal moves) under setting [1] is 23.1 µM [falling, single point].
Consider `OCC[C@H]1C[C@@H](O)[C@H](O)[C@@]2(Cc3ccccc3CCO2)O1`, for which the cell number change is -8.74%. Further, the AC50 under setting [2] is 29.1 µM [rising, single point].
Take `O=C(CN1C(=O)/C(=C\c2ccccc2Cl)Oc2ccccc21)NCc1cccnc1`: the cell number change was -41.7%. Besides, the AC50 under setting [1] is 23.1 µM [falling, single point]. In addition, under setting [2], the AC50 is 16.4 µM [falling, partial curve].
For `COC(=O)c1ccc(N2CCN(S(=O)(=O)c3ccc(Br)cc3)CC2)c([N+](=O)[O-])c1`, the AC50 under setting [1] was 0.731 µM [falling, full curve, poor fit].
Consider `O=C(Nc1ccccc1)O[C@@H]1C[C@H]2CCC(=O)N3CC[C@@H](C1)[C@@H]23`, for which the cell number change worked out at 4.85%. Besides, the AC50 under setting [1] was 2.06 µM [rising, partial curve, poor fit].
Regarding `O=C(c1ccc(F)cc1)n1ccc(-c2cnc(-c3ccccc3)s2)n1`, under setting [1], the AC50 was 0.731 µM [rising, single point].
As to `CCOC(=O)C1C(c2cccnc2)NC(=O)NC1(O)C(F)(F)F` (centres undefined), the cell number change is -16.8%. Also, the concentration at half-maximal activity (AC50) under setting [1] was 0.00731 µM [falling, full curve, poor fit]. The AC50 under setting [2] was 3.26 µM [falling, single point].
Take `Cc1ccc(-c2[nH]ncc2CN2CCN(C(=O)c3cccs3)CC2)cc1C`: the cell number change is -20.8%. The AC50 under setting [2] is 0.00461 µM [rising, full curve, poor fit].
Consider `CCNC(=O)COC(=O)CNC(=O)c1cc(Cl)cc([N+](=O)[O-])c1`, for which the cell number change turned out to be 35.8%. Also, under setting [1], the AC50 is 29.1 µM [rising, single point]. In addition, the AC50 under setting [2] was 14.6 µM [rising, partial curve].
`O=C(NCc1ccco1)C1CC(c2ccccc2O)=NO1` (centres undefined): the cell number change came out at 2.55%. The AC50 under setting [2] was 7.31 µM [rising, single point].
`Cn1c(=O)c2c([nH]c(=S)n2CCCc2ccccc2)n(C)c1=O`: the cell number change was -17.5%. Further, the AC50 under setting [2] is 29.1 µM [falling, single point].
On to `Cc1ccc(NC(=O)CN(C)C(=O)C2CC(=O)N(Cc3ccccc3)C2)cc1` (centres undefined), for which the cell number change amounted to 27.6%. The half-maximal activity concentration (AC50) under setting [2] is 29.1 µM [rising, single point].
In the case of `COc1cc2ccccc2cc1C(=O)N/N=C/c1cccnc1`, the cell number change was -5.73%.
Consider `CC1(C)Cc2c(sc(NC(=O)C(=O)NCC3CCCO3)c2C(=O)O)CO1` (centres undefined), for which the cell number change was found to be 8.85%. The AC50 under setting [2] is 6.51 µM [falling, single point].
As for `Cc1ccc(/C(O)=C2\C(=O)C(=O)N(C)C2c2ccc(Br)cc2)cc1` (centres undefined), the cell number change is -4.99%. Moreover, the AC50 under setting [2] was 29.1 µM [rising, single point].
In the case of `O=C(C[n+]1ccccc1)N/N=C/c1cccs1`, the cell number change is -7.31%. Under setting [1], the AC50 is 0.13 µM [falling, full curve, poor fit]. Moreover, the AC50 under setting [2] was 0.291 µM [falling, full curve, poor fit].
With `COc1ccc(N(CC(=O)Nc2c(C)n(C)n(-c3ccccc3)c2=O)S(=O)(=O)c2ccc(C)cc2)cc1OC`, the cell number change came out at 17.1%.
Regarding `CCCNC(=O)c1onc(CSc2ccc(F)cc2)c1C(=O)NCC1CC1`, the cell number change is 15.7%. For the same molecule, under setting [2], the AC50 is 4.61 µM [rising, full curve, poor fit].
For the molecule `NC(=O)CCC(NS(=O)(=O)c1ccc(Cl)cc1)C(=O)NCc1ccc(Cl)cc1` (centres undefined), the cell number change worked out at 10.6%. Moreover, under setting [2], the concentration at half-maximal activity (AC50) is 3.26 µM [rising, partial curve].
As to `COc1ccc(NC(=O)N2CCCc3ccccc32)cc1OC`, the cell number change is -4.46%. In addition, the AC50 under setting [2] is 29.1 µM [rising, single point].
In the case of `COCC(C)NC(=O)Cn1c(SCc2ccccc2)nc2ccccc21` (centres undefined), the cell number change was 19.2%. The AC50 under setting [2] is 0.411 µM [rising, partial curve].
Take `O=C(NC1CCCCC1)N1CCN(C(c2ccccc2)c2ccccc2)CC1`: the cell number change was found to be 0.892%.
For the molecule `CC(C)(C)c1ccc(NC(=O)COC(=O)C2CCCC2)cc1`, the cell number change is -2.06%. The AC50 under setting [2] is 0.58 µM [rising, full curve].
Take `O=C(Nc1ccc(Cl)cc1)NC1CCCc2ccccc21` (centres undefined): the AC50 under setting [2] is 11.6 µM [falling, partial curve, poor fit].
Regarding `CC(C)CCNC(=O)CSc1nc2ccsc2c(=O)n1NC(=O)c1ccccc1`, the cell number change came out at 10.9%. Besides, the AC50 under setting [1] was 2.06 µM [rising, partial curve, poor fit]. Moreover, the AC50 under setting [2] is 2.06 µM [rising, partial curve].
On to `O=[N+]([O-])c1cc(C(F)(F)F)ccc1NCCc1c[nH]c2ccccc12`, for which the cell number change is -58.6%. Moreover, the AC50 under setting [1] is 11.6 µM [falling, partial curve]. The AC50 under setting [2] is 14.6 µM [falling, partial curve].
Take `COc1ccc(NC(=O)c2ccc3nc[nH]c3c2)c(OC)c1`: the cell number change came to 70.4%. Further, under setting [1], the AC50 is 11.6 µM [rising, partial curve].
With `O=C(NCc1ccncc1)c1ccccc1Nc1ccc(SC(F)F)cc1`, the cell number change stood at 1.32%.
For the molecule `CCOc1cccc(C(=O)NC(=S)Nc2cccc(C)c2)c1`, the cell number change is 36.1%. Also, the AC50 under setting [1] is 9.2 µM [rising, partial curve]. Besides, the AC50 under setting [2] is 10.3 µM [rising, partial curve].
Turning to `COc1ccc(-c2nc3ccccc3c(=O)n2N)cc1`, the cell number change was -21.5%. Under setting [1], the AC50 was 0.291 µM [rising, full curve, poor fit]. In addition, the AC50 under setting [2] was 3.66 µM [rising, partial curve, poor fit].
On to `Fc1cccc(Nc2ncnc3c2cnn3-c2ccccc2)c1`, for which the cell number change is -26.5%.
Turning to `COc1ccc(C)cc1NC(=O)C(OC(=O)Cn1cnc2c1c(=O)n(C)c(=O)n2C)c1ccccc1` (centres undefined), the cell number change was 44.4%. Moreover, the AC50 under setting [1] is 20.6 µM [rising, single point]. Further, the AC50 under setting [2] was 25.9 µM [rising, single point].
Consider `COc1cccc(-c2csc(NC(=O)C3CC3)n2)c1`, for which the cell number change was 18.2%. Under setting [1], the AC50 is 3.26 µM [rising, partial curve, poor fit]. For the same molecule, under setting [2], the AC50 was 2.31 µM [rising, partial curve, poor fit].
Take `O=C1OCCC1Sc1nnc(-c2cccc(Br)c2)o1` (centres undefined): under setting [2], the AC50 is 23.1 µM [falling, partial curve].
Take `COc1ccc(N(C(=O)c2snc(C(N)=O)c2N)C(C(=O)NC2CCCCC2)c2ccc(C)o2)cc1` (centres undefined): the cell number change was 11.8%. Besides, the AC50 under setting [2] was 25.1 µM [falling, single point].
Regarding `COc1ccc([C@H]2CC(=O)C=C(c3ccc(C(F)(F)F)c(C(F)(F)F)c3)C2)cc1OC`, the cell number change is -48.9%. Further, under setting [1], the AC50 is 29.1 µM [falling, single point]. Besides, the AC50 under setting [2] was 29.1 µM [falling, single point].
